The exact form of at least one protein or probe is not confirmed. At least one verdict rests on a figure or table, not on a statement of the authors.

This data set has as its system ComFA. Description: EMSA.

On to “CCGACCCACCATGCGTTTGTAACCCGACCCACCGTTCGTTCCTACCCACC [50MB ssDNA]”, for which the binding result (5 nM DNA, the 138 nM Kd is quoted from earlier work) was “binds”.

On to “TTTTTTTTTTTTTTTTTTTTTTTTTTTTTTTTTTTTTTTTTTTTTTTTTT [50T]”, for which the binding result (5 mM ADP, reverses the weakening by 5 uM ADP) was “binds”.

(Values after publication doi:10.1101/2021.10.29.466550.)
